Results: ChEMBL document CHEMBL5380863 (J Med Chem, 2023)

Chains of the proteins cited; added tags and fusions are not shown. Lines headed by an entry give the natural chain unless they say otherwise; changes in a name come on top.
UniProt O60674: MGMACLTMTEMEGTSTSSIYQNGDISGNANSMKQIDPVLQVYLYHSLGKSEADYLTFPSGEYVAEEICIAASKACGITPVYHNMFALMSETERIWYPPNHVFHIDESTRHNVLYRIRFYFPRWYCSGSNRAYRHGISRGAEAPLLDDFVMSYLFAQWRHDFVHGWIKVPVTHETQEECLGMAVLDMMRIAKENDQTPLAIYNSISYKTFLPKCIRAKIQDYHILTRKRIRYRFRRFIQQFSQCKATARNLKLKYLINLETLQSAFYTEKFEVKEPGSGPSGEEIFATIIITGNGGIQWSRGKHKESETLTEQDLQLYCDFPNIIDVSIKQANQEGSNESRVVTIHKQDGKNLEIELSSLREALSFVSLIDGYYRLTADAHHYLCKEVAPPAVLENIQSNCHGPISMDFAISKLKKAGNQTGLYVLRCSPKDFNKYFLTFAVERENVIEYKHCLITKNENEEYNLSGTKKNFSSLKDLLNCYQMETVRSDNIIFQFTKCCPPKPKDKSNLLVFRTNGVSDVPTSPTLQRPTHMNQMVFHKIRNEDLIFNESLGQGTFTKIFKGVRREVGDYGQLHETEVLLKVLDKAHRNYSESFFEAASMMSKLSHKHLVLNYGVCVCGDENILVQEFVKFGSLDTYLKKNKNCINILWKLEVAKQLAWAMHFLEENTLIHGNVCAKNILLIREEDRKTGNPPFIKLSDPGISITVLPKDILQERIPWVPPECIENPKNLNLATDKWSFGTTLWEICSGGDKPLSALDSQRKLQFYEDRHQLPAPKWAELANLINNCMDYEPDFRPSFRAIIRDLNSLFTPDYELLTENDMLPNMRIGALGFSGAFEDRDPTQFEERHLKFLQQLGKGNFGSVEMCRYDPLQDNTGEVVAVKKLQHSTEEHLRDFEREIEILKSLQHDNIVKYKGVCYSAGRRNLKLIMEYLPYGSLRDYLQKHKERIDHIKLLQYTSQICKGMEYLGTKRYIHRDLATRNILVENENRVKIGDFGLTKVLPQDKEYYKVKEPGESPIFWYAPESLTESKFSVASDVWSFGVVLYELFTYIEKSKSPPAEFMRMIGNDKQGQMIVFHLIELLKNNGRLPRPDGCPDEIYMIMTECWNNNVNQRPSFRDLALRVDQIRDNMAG

Columns and labels:
[1] = molecular target: T1, Tyrosine-protein kinase JAK2 (Homo sapiens, UniProt O60674)
[2] = molecular target: T1, Tyrosine-protein kinase JAK2; remark: listed apart in the source

## Cc1cnc(Nc2ccc(OCCCCCCC(=O)NO)cc2)nc1Nc1cccc(S(=O)(=O)NC(C)(C)C)c1
[1]
  IC50: 0.0224 µM
[2]
  IC50: 0.00532 µM
